Test results from the supplement of paper PMC4683952.
This is one part of the list. Cut-off read from the data, not from the text of the source: active = 2 or more and inactive = the rest. Single values are uncertain here, since repeats match poorly.

Tested on: Lgr5 (MarsCy1-Lgr5-EGFP, U2OS)
Test: cell-surface Lgr5 expression (SCi1 fluorescence, background-subtracted) relative to WT DMSO (fold of DMSO control); higher = more Lgr5 at the plasma membrane
Conditions: U2OS MarsCy1-Lgr5-EGFP stable; treatment time: overnight; library: ActiProbe-5K (TimTec); 25 µM

cell-surface Lgr5 expression, inactive:
O=[N+]([O-])c1ccc(Cl)c(/C=N\c2ccc(Cl)c([N+](=O)[O-])c2)c1 1.89, CC1(C)CCCC(C)(C#CCN2CCN(CCO)CC2)O1 (configuration not stated) 1.31, Clc1cccc2c3c([nH]c12)CCNC3 1.29, Cc1sc(NC(=O)C2CCCO2)c(C(N)=O)c1C (configuration not stated) 1.43, O=c1[nH]nc(S)n1C1CCCCC1 1.09, S=C(Nc1ccccc1)Nc1cc(Cl)c(Cl)cc1Cl 1.04, Nc1c(N)c(N)c(N)c(N)c1N 1.13, CN1C(=O)/C(=C2\SC(=S)N(CC3CCCO3)C2=O)c2cc(Br)ccc21 (configuration not stated) 1.29, Cc1ccccc1-c1nn2c(-c3n[nH]c4c3CCC4)nnc2s1 1.23, Oc1[nH]c2ccc(Br)cc2c1OCc1ccncc1 1.07, Fc1ccc(-c2cc(C(F)(F)C(F)F)[nH]n2)cc1 0.867, Cc1ccc(C(C2=C(O)CC(C)(C)CC2=O)C2C(=O)CC(C)(C)CC2=O)o1 (configuration not stated) 1.16, CC(C)CNc1ncnc2sc3c(c12)CCCC3 1.26, O=[N+]([O-])c1ccc2nc(O)cnc2c1 1.03, c1ccc(CCn2c(-c3ccccc3)cs/c2=N/c2ccccc2)cc1 0.86, OC1CC(C(F)(F)F)Oc2ccc(Cl)cc21 (configuration not stated) 1.48, Cc1cc(=O)[nH]c2c1c(O)nn2C1CCCCC1 1.33, Nn1c(S)nnc1C(O)c1ccccc1 (configuration not stated) 1.04, Cc1cc(O)nc(SCc2ccon2)n1 1.1, O=c1nc(C(F)(F)F)cc(/C=C\c2c[nH]nc2-c2cccs2)[nH]1 0.933, O=C1C=CC(=O)N1SSN1C(=O)C=CC1=O 0.303, CC(=O)NC/C(C)=N/NC(=O)OC(C)(C)C 1.22, CCNC(=S)Nc1n[nH]c2nc(Cl)cc(C)c12 0.971, O=C([O-])CCCc1c[nH]c2ccccc12.[K+] 1.06, O=C1/C(=C\C2CCCO2)CC/C1=C\C1CCCO1 (configuration not stated) 1.35, Cn1ncc(Cl)c1C(=O)NCCCn1cc(Br)cn1 1.12, CCCc1cc(=O)nc(SCC(N)=O)[nH]1 0.968, Cc1noc2c1/C(=N/O)CC(C)(C)C2 1.43, N#Cc1c(SCC(=O)NC23CC4CC(CC(C4)C2)C3)sc2c(O)cc(=O)[nH]c12 1.3, Sc1nnc(COc2cccc3ccccc23)n1-c1ccccc1 1.08, Cl/C=C/COc1ccc(Cl)cc1 1.1, CCCCOCC(O)CN1CCCCC1 (configuration not stated) 0.949, COc1ccc(OC)c(C2=Nn3c(nnc3-c3ccccc3F)SC2)c1 1.04, CC1=C(C(=O)OCC2CCCO2)C(c2ccc(C)o2)C2=C(CC(C)(C)CC2=O)N1 (configuration not stated) 1.11, CS(=O)(=O)N1CCN(c2ccc(F)cc2)CC1 0.943, CCC(=O)c1c(N)cc(C)oc1=O 1.07, CN1C(=O)C(CCC(N)=O)NC1=S (configuration not stated) 1.03, Nc1ncnc2[nH]c(Sc3ncnc4ccccc34)nc12 1.13, Cl.c1ccc(CC2=NCCN2)cc1 0.861, FC(F)(F)c1ccccc1/C=N\N1CCN(C2c3ccccc3-c3ccccc32)CC1 1.41, Clc1ccc(N=Cc2ccc(Br)o2)cc1 1.07, CC1=C(C#N)c2nc(N)c(C#N)c(C)c2/C1=C/c1cccs1 1.55, c1ccc([C@H]2[C@H](C(c3cc(C(F)(F)F)ccc3)=O)N3[C@H]([C@@]2(C#N)C#N)(c2c(C=C3)cccc2))cc1 1.67, O=S(=O)(c1cccc2ccccc12)n1cnc2ccccc21 0.992, Cn1c(=O)c2c(nc(SCC(=O)NC(C)(C)C)n2C)n(C)c1=O 1.12, NNc1ccc(OC(F)(F)F)cc1 1.05, C(#N)C(=C1\CCOCC1)/C#N 1.31, Cc1cc(/C=N\NC(N)=S)c(C)n1-c1sc2c(c1C#N)CCCC2 1.13, C/C(=N/NC(=O)Cc1cc(=O)[nH][nH]1)c1cccs1 0.982, CCCN1CN(Cc2ccco2)CNC1=S 1.26, Nc1ccc(S(=O)(=O)Nc2ccc(S(N)(=O)=O)cc2)cc1 1.11, C/C(=N\NC(=O)c1ccco1)c1ccco1 1.16, CC(=O)N1CCC2(CC1)C1CN(C(C)=O)CC=C1C(C#N)=C(N)C2(C#N)C#N (configuration not stated) 1.1, Cc1c(-c2ccno2)cnn1C 1.22, CC(C)(C)Sc1c(Br)cccc1Br 1.02, Oc1cccc2ccc(Cl)nc12 1.12, CN(C)S(=O)(=O)NCc1ccc2c(c1)OCO2 0.939, O=c1nc(N/N=C\c2cccnc2)cn[nH]1 1.3, Cc1cc(C)c2c(O)nn(C(C)C)c2n1 1.27, N#CC1=C(N)Oc2ncnc(O)c2C1c1ccsc1 (configuration not stated) 1.3, O=[N+]([O-])c1ccc(F)c(C(F)(F)F)c1 1.49, COc1cc2nc(N3CCN(c4nc(N)c5cc(OC)c(OC)cc5n4)CC3)nc(N)c2cc1OC 1.69, CC(C)(C)c1cc(CSCc2cc(C(C)(C)C)cc(C(C)(C)C)c2)cc(C(C)(C)C)c1 1.26, N#Cc1c(SCCN2CCCC2)nc2c(c1C(F)(F)F)CCCCC2 1.02, C=CCN(CC=C)S(=O)(=O)c1cc(Cl)ccc1Cl 1.12, O=C(Cn1nc([N+](=O)[O-])nc1Br)N1CCOCC1 1.35, O=S(=O)(NCCCn1ccnc1)c1cc(Cl)ccc1Cl 1.1, Cc1cc(C(=O)N/N=C2\CC(=O)CC(C)(C)C2)[nH]n1 1.34, COC(=O)CSc1ncnc2sc3c(c12)CCCC3 0.845, COC(=O)c1ccn([C@H]2CC(=O)[C@@H]3OC[C@H]2O3)n1 1.01, Fc1cnc(Cl)nc1NC1CCCCC1 1.12, O=C1c2ccccc2C(=O)c2c1c(C(=O)N1CCOCC1)c1ccccn21 1.3, [O-][n+]1c2c(nn1-c1ccccc1)/C(=N/O)CCC2 1.26, CSc1ccc(C2C(C#N)=C(N)SC(N)=C2C#N)cc1 1.43, CSc1nc(-c2ccco2)cc(C(F)(F)F)c1C#N 1.08, Cc1cc(S(=O)(=O)N2CCOCC2)c(C)s1 1.36, Cn1ncc(Br)c1C(=O)NN 0.964, Cl.c1cc2c(cc1C13CC4CC(CC(C4)C1)C3)c1c3n2CCNC3CCC1 (configuration not stated) 0.732, Cc1cc(C2CC(=O)OC3=C2C(=O)CC(C)(C)C3)c(C)s1 (configuration not stated) 1.02, Cn1nnnc1SC(c1ccccc1)c1ccccc1 1.16, O=C(NC1CC1)c1scc2c1OCCO2 1.11, COc1cc(OC)c(/C=N\O)cc1Br 0.457, Cc1sc(C)c2c1CCCC2=O 1.33, CN(C)S(=O)(=O)N1CCN(c2ccc(F)cc2)CC1 1.05, O=C(O)C1CC(=O)N(CC2CCCO2)C1 (configuration not stated) 1.34, NCCCc1nc2cc(O)ccc2[nH]1 1.23, C1(C[C@H](C(=O)OC)CC([C@](=O)OC)C1)[C@](=O)OC (configuration not stated) 1.4, NC(=O)CSc1nc2[nH]c(=O)cc(O)c2s1 1.08, COc1cc2c(cc1N)OCO2 1.12, C[C@@H]1CC2(CCCN2)C[C@H]1C.O=C(O)C(=O)O 1.14, CC1(C)CNC(=S)NC1 1.07, Br.Nc1ccc(OCCC[n+]2ccc(CCS(=O)(=O)[O-])cc2)cc1 1.04, O=S(=O)(c1ccc(Cl)cc1)N1CCN(c2ccc(N3CCOCC3)nn2)CC1 1.39, S=C(NCC1CCCO1)NC1CCCCC1 (configuration not stated) 1.19, Cc1ccsc1C1NC(=O)c2c(sc3c2CCCC3)N1 (configuration not stated) 0.665, COc1cc(Br)c(-c2c(-c3ccc(Cl)cc3)cn3ccc4cc(OC)c(OC)cc4c23)cc1OC 0.998, S=C1NCN(CCc2ccccc2)CN1CCc1ccccc1 1.11, C(/C#N)(C#N)=C\Nc1ncc(cc1)Cl 0.939, Cc1cc(N)nn1Cn1nc(C(F)(F)F)cc1C 1.2, C/C(CC(C)C)=N\Nc1ccc([N+](=O)[O-])cc1[N+](=O)[O-] 1.06, O=c1cc(O)c2sc(SCCN3CCOCC3)nc2[nH]1 1.26, C=CCOc1c(Cl)cc(/C=N/n2nnnc2N)cc1OC 1.31, Cc1nc(N(C)N)c(C#N)c(C)c1Cl 0.699, Cc1nc2nc(S(N)(=O)=O)nn2c(C)c1C 1.18, S=C(Nc1cccnc1)Nc1cc(Cl)c(Cl)cc1Cl 0.968, O=C(NC1(C(F)(F)F)N=C2SCCN2C1=O)c1ccco1 (configuration not stated) 1.11, C(=N/c1cccnc1)/c1c[nH]c2ccccc12 1.1
